# Measurements: PubChem BioAssay AID1347076 (National Center for Advancing Translational Sciences (NCATS), 2019)
# In all, about 400,000 compounds went through this assay and about 13,000 (3.2%) were called active. Inconclusive results, whose numbers are uncertain, are shown with a selection of clear calls. Calls follow the shape of the dose curve; as a rule, active = well fitted cell-killing curve with a large enough effect; inconclusive = small, poorly fitted or top-dose-only effect, or effect the other way; inactive = flat fitted curve, though single readings scatter. Potencies beside an inconclusive call are fits to weak or partial responses and may not hold up.
# Experiment: qHTS assay for MDR1-selective chemotherapeutics: Primary screen using the drug-selected MDR subline cells KB-V1; also: nearly all actives have a fitted effect of over 60% in size
# Details: KB-V1 MDR cells viability, CellTiter-Glo, 72 h; activity change, negative = cytotoxicity: at 46.1 µM (top of the series)
# Method in brief: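 Potencies derive from concentration-effect curves fitted to normalized luminescence (CellTiter-Glo) of KB-V1 cells treated for 72 h at 37 degrees C in phenol-red-free DMEM containing 10% FBS.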
# % is scaled to controls: 0 for no effect and ±100 for the full control effect; potency is read from the fitted curve at half-maximal effect.
Structure (SMILES),Potency,"activity change, negative = cytotoxicity"
CC(=O)c1ccc(S(=O)(=O)N2CCN(C(=O)c3cccc(S(=O)(=O)N4CC(C)OC(C)C4)c3)CC2)cc1 (stereo not given),"inconclusive: 23.1 µM [rising, single point]",
O=[N+]([O-])c1ccc(O)c(CN2CCCCCC2)c1,,inactive: 0.226%
O=C(CN(Cc1cccs1)C(=O)CCC(=O)Nc1ccccn1)NCc1ccccc1,,inactive: 17.2%
COc1ccc(C(=O)N2CCN(C3CCCCC3)CC2)c(OC)c1,"inconclusive: 20.6 µM [cytotoxic, single point]",
COc1ccc(NCc2ccccc2[N+](=O)[O-])cc1OC,active: 20.6 µM,
CCOC(=O)c1ccc(-c2ccc3c(=O)c4ccccc4n(C)c3c2)cc1F,"inconclusive: 20.6 µM [rising, single point]",
CCCCc1c(Cc2ccccc2)ncn1CCc1ccccc1OC,active: 18.4 µM,
Cc1cc(C)nc(N2C(=O)CC(C(=O)O)NC2=NCCc2c[nH]c3ccccc23)n1 (stereo not given),"inconclusive: 13 µM [rising, partial curve]",
COc1ccc(CC2c3cc(OC)c(OC)cc3CC[N+]2(C)CCC(=O)OCCCCCOC(=O)CC[N+]2(C)CCc3cc(OC)c(OC)cc3C2Cc2ccc(OC)c(OC)c2)cc1OC (stereo not given),"inconclusive: 4.11 µM [cytotoxic, partial curve]",
CC(=O)Nc1ccc(S(=O)(=O)NCC2CCC(C(=O)NCc3ccccc3)CC2)cc1 (stereo not given),"inconclusive: 29.1 µM [rising, single point]",
CC(C)N(C(=O)Cn1cc(SCC(=O)N2CCCC2)c2ccccc21)C(C)C,"inconclusive: 8.2 µM [cytotoxic, partial curve]",
O=C(O)CSCc1nc2cccnc2n1C1CCCCC1,,inactive: -4.15%
Cc1c(Cl)c(C(=O)N2CCCc3ccccc32)nn1C,,inactive: 8.97%
Cc1cccc(N(C)C(=O)c2cc3cc4ccc(C)cc4nc3o2)c1,active: 11.6 µM,
Cc1cc(Nc2cccc(Br)c2)n2c(nc3ccccc32)c1C#N,"inconclusive: 4.11 µM [cytotoxic, full curve]",
CC1(C)Cc2c(cnn2-c2ccccc2)C(NC(=O)CCCn2cncn2)C1 (stereo not given),"inconclusive: 23.1 µM [cytotoxic, partial curve, poor fit]",
COc1ccc(CC(=O)Nc2ccc(S(=O)(=O)Nc3onc(C)c3C)cc2)cc1OC,"inconclusive: 0.0731 µM [rising, full curve]",
Cc1cc(C(F)F)n2nc(C(=O)Nc3ccc(S(=O)(=O)NC45CC6CC(CC(C6)C4)C5)cc3)nc2n1,"inconclusive: 23.1 µM [cytotoxic, single point]",
O=c1cnnc(N/N=C/c2cccs2)[nH]1,"inconclusive: 29.1 µM [cytotoxic, single point]",
O=C(NCCN1CCC(n2c(=O)[nH]c3ccccc32)CC1)c1ccc(Cl)cc1,,inactive: -17.3%
CCOC(=O)c1c(S(=O)(=O)N2CCC(C)CC2)c(C)n(C)c1C,,inactive: 0%
CCOc1cc2[nH]c(=S)n(CC3CCCN3CC)c(=O)c2cc1OCC (stereo not given),"inconclusive: 9.2 µM [cytotoxic, partial curve]",
Cn1nnc(NC(=S)NC(=O)c2cccc3c(Cl)cccc23)n1,"inconclusive: 29.1 µM [rising, single point]",
Cc1ccccc1CSc1nnc(NC(=O)C2COc3ccccc3O2)s1 (stereo not given),"inconclusive: 18.4 µM [cytotoxic, partial curve, poor fit]",

Structure (SMILES),Potency,"activity change, negative = cytotoxicity"
CN(C)c1ccc(CNC(=O)C2CCCN(S(=O)(=O)c3ccc4c(ccn4C)c3)C2)cc1 (stereo not given),"inconclusive: 20.6 µM [cytotoxic, single point]",
COCC(=O)N1CCC(Oc2ccc(C(=O)NCCc3ccncc3)cc2)CC1,,inactive: 1.84%
COc1ccc2c(c1)c(C(=O)CN1CCN(Cc3ccccc3)CC1)c(C)n2C,"inconclusive: 6.51 µM [cytotoxic, partial curve]",
COc1ccc(/C=N/NC(=O)c2nonc2N)cc1OC,"inconclusive: 5.8 µM [rising, partial curve, poor fit]",
COC(=O)C(OC(=O)c1ccccc1)C(C)Br (stereo not given),"inconclusive: 20.6 µM [rising, single point]",
COc1ccc(Cl)cc1NC(=O)C(C)N1CCc2ccccc21 (stereo not given),"inconclusive: 23.1 µM [cytotoxic, single point]",
CN(Nc1cccc(Cl)c1)c1cccc(Cl)c1,,inactive: 0.0869%
COC(=O)C1=C(C)NC(=O)C1(NC(=O)c1ccc(Cl)cc1)C(F)(F)F (stereo not given),,inactive: 4.4%
Cc1ccc2c(c1)C1CN(C)CCC1N2C(=S)NC(=O)c1ccc(Cl)cc1Cl (stereo not given),"inconclusive: 18.4 µM [cytotoxic, partial curve]",
CSc1cccc(NC(=O)CNC(=O)c2ccc3c(c2)OCO3)c1,,inactive: 9.72%
Cc1csc(NC(=O)CSc2ncnc3c2cnn3-c2ccccc2Cl)n1,"inconclusive: 29.1 µM [cytotoxic, single point]",
CCCCn1c(NC(=O)c2ccccc2Cl)c(C#N)c2nc3ccccc3nc21,"inconclusive: 13 µM [cytotoxic, partial curve]",
Cc1c(C#N)c(O)n(CCO)c(=O)c1N=Nc1ccc2c(c1)COC2=O,,inactive: -1.01%
CCN1CCC(N(Cc2cccc(OC)c2)C(=O)Nc2cccc(C)c2C)CC1,,inactive: -4.07%
Cc1cc(C)cc(-n2c(C)cc(/C=N/NC(=O)c3cccc([N+](=O)[O-])c3C)c2C)c1,"inconclusive: 16.4 µM [cytotoxic, single point]",
CCOC(=O)c1cn(Cc2ccccc2)c(C(=O)OC(C)(C)C)c1O,"inconclusive: 6.51 µM [rising, partial curve, poor fit]",
CC(=O)c1ccc(S(=O)(=O)N2CCN(C(=O)C3CCCC3)CC2)cc1,"inconclusive: 18.4 µM [cytotoxic, single point]",
O=C(CN1C(=O)CCC1=O)Nc1nc(-c2nc3ccccc3s2)cs1,,inactive: 4.67%
O=c1oc2ccccc2n1CCCOc1ccccc1Cl,,inactive: -3.84%
Cc1ccc(C)c(NC(=O)C(Sc2ncnc3ccccc23)c2ccccc2)c1 (stereo not given),active: 16.4 µM,
COc1ccccc1NC(=O)Cn1cnc2sc(C(=O)Nc3ccc(OC)c(OC)c3)c(C)c2c1=O,"inconclusive: 29.1 µM [rising, single point]",
COC(=O)C(=Cc1ccc(OCc2ccc([N+](=O)[O-])cc2)c(OC)c1)C(=O)OC,"inconclusive: 18.4 µM [cytotoxic, partial curve, poor fit]",
CCN(c1cccc(C)c1)S(=O)(=O)c1ccc(-c2cc(C)no2)s1,"inconclusive: 29.1 µM [cytotoxic, single point]",
CCn1c(=O)c([N+](=O)[O-])c(NCC2CCCO2)c2ccccc21 (stereo not given),"inconclusive: 29.1 µM [cytotoxic, single point]",

Structure (SMILES),Potency,"activity change, negative = cytotoxicity"
CC(=O)Cc1nsc(NC(=O)c2cc(-c3ccc(Cl)c(Cl)c3)oc2C)n1,"inconclusive: 20.6 µM [rising, partial curve, poor fit]",
CCS(=O)(=O)N1CCC(c2nc(-c3ccc(C)cc3)no2)CC1,"inconclusive: 14.6 µM [cytotoxic, partial curve, poor fit]",
Cc1cc(C(=O)CSc2nc(N)cc(=O)[nH]2)c(C)n1-c1cccc(F)c1,active: 3.66 µM,
O=C(Cn1c(=O)oc2cc(S(=O)(=O)N3CCCC3)ccc21)NCc1ccc(Cl)cc1,,inactive: 0%
O=c1cc(CSc2ccccc2)[nH]c2ccccc12,,inactive: -1.01%
COc1ccc(NC(C)C(=O)Nc2cccc(S(=O)(=O)N3CCOCC3)c2)cc1OC (stereo not given),"inconclusive: 3.26 µM [cytotoxic, partial curve, poor fit]",
Cc1nc2ncnn2c(C)c1CCC(=O)NCCCN1CCN(c2cccc(Cl)c2)CC1,,inactive: -18%
CS(=O)(=O)N1CCc2cc(C(=O)Nc3ccc(Cl)c(C(F)(F)F)c3)ccc21,,inactive: 19.2%
OCC[C@@H]1C[C@H](O)[C@@H](O)[C@@]2(OCCCc3cc(C(F)(F)F)ccc32)O1,,inactive: -4.23%
O=C(Nc1ccccc1C(=O)N1CCCCCC1)c1cccc(S(=O)(=O)N2CCOCC2)c1,"inconclusive: 11.6 µM [cytotoxic, partial curve, poor fit]",
CN(c1ccccc1)S(=O)(=O)c1ccc(C(=O)N2CCN(c3ccccc3)CC2)cc1,,inactive: 23.3%
CCN(CC)C(=O)Cn1c(=O)n(Cc2ccc(C(=O)NCc3ccc(C)cc3)cc2)c(=O)c2ccccc21,,inactive: 10.7%
CCN(CC)S(=O)(=O)c1ccc2c(c1)nc(-c1ccccn1)n2C,"inconclusive: 18.4 µM [cytotoxic, partial curve, poor fit]",
CS(=O)(=O)Nc1ccc(C2=NN(S(=O)(=O)c3ccc(F)cc3)C(c3ccco3)C2)cc1 (stereo not given),,inactive: -6.5%
COc1cc(CN2CCc3ccc(NC(=O)CCc4ccccc4OC)cc3C2)ccc1O,,inactive: -15.4%
COc1ccc(NC(=O)Cn2c(=O)n(-c3cccc(C)c3)c(=O)c3c2c2cc(C)ccc2n3C)cc1Cl,,inactive: -1.74%
O=C(CSc1cccc(C(F)(F)F)c1)Nc1ccc(Cl)cc1Cl,"inconclusive: 32.6 µM [cytotoxic, partial curve, poor fit]",
Cn1c(=O)c2c(nc(N/N=C/c3cccnc3)n2Cc2ccccc2)n(C)c1=O,,inactive: 8%
CN1CCCC1CCNc1ncnc2ccc(-c3ccc4c(c3)OCO4)cc12 (stereo not given),"inconclusive: 6.51 µM [rising, full curve, poor fit]",
CCCCOCCCNC(=O)C[C@@H]1C[C@@]2(C(=O)OC)CC(C)(C)CC=C2N(Cc2ccccc2)C1=O,"inconclusive: 7.31 µM [cytotoxic, partial curve]",
CCN1CCN(C(=S)c2ccc(SC)cc2)CC1,,inactive: 0%
CC1CCN(S(=O)(=O)N2CCC(C(=O)NCc3ccc4c(c3)OCO4)CC2)CC1,"inconclusive: 10.3 µM [cytotoxic, partial curve]",

# Structures shown so far that contain a CF3 group, in the order listed:
Structure (SMILES),Potency,"activity change, negative = cytotoxicity"
COC(=O)C1=C(C)NC(=O)C1(NC(=O)c1ccc(Cl)cc1)C(F)(F)F (stereo not given),,inactive: 4.4%
CS(=O)(=O)N1CCc2cc(C(=O)Nc3ccc(Cl)c(C(F)(F)F)c3)ccc21,,inactive: 19.2%
OCC[C@@H]1C[C@H](O)[C@@H](O)[C@@]2(OCCCc3cc(C(F)(F)F)ccc32)O1,,inactive: -4.23%
O=C(CSc1cccc(C(F)(F)F)c1)Nc1ccc(Cl)cc1Cl,"inconclusive: 32.6 µM [cytotoxic, partial curve, poor fit]",
